For one molecule, IC50 results are on record in ChEMBL document CHEMBL3097987, “Pyrrolizines: Promising scaffolds for anticancer drugs” (Bioorg Med Chem, 2014).

In this assay the target is T1, Aromatase (Homo sapiens, UniProt P11511).
T1 sequence (P11511 whole entry): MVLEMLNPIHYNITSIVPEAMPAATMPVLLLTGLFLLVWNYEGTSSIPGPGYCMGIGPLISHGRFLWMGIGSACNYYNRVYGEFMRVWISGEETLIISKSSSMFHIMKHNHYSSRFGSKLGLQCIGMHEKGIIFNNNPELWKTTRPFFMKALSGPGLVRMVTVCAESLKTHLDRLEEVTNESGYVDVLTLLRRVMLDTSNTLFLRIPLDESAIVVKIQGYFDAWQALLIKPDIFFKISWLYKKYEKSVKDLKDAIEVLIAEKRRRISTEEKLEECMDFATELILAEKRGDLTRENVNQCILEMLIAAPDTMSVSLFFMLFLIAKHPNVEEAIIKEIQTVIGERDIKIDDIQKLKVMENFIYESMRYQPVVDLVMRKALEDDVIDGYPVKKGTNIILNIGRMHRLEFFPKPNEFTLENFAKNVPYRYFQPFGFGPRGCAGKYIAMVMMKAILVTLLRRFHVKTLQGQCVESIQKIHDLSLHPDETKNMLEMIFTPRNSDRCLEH
The assay can be described thus: Inhibition of aromatase (unknown origin).

On to `O=C1/C(=C\c2cccnc2)C(c2ccc(OC(F)(F)F)cc2)n2cccc21` (stereo unspecified), for which the midpoint of inhibition, the IC50, lay at 1.6 µM.

The IC50 is the concentration that inhibits the measured activity by half.
